Results as given in article PMC5314175.
Results are given in words; binding and its absence hold for the method and conditions named. Binding seen in cells or lysates may run through a third protein. Binding can be weak; no strength is given.

Molecular target: V5-tagged Exo1 with the C-terminal regulatory region deleted
Assay: co-IP; full-length and truncated V5-tagged Exo1 expressed in HEK-293 cells, immunoprecipitated with V5 antibody, blot probed for EEPD1; from 300 ug of total cell lysate

B1: native EEPD1 (endogenous, HEK-293) (enzyme, UniProt Q7L9B9 1-569)
chain: MGSTLGCHRSIPRDPSDLSHSRKFSAACNFSNILVNQERLNINTATEEELMTLPGVTRAVARSIVEYREYIGGFKKVEDLALVSGVGATKLEQVKFEICVSSKGSSAQHSPSSLRRDLLAEQQPHHLATAVPLTPRVNINTATPAQLMSVRGLSEKMALSIVDFRREHGPFRSVEDLVRMDGINAAFLDRIRHQVFAERSRPPSTHTNGGLTFTAKPHPSPTSLSLQSEDLDLPPGGPTQIISTRPSVEAFGGTRDGRPVLRLATWNLQGCSVEKANNPGVREVVCMTLLENSIKLLAVQELLDREALEKFCTELNQPTLPNIRKWKGPRGCWKAVVAEKPSSQLQKGAGYAGFLWDAAAGMELRDAGSQESSPSNGHGKLAGPSPYLGRFKVGSHDLTLVNLHLAALTLLGSENPSKNHSDGHRLASFAQTLQETLKGEKDVIILGDFGQGPDSNDYDILRKEKFHHLIPAHTFTNISTKNPQGSKSLDNIWISKSLKKVFTGHWAVVREGLTNPWIPDNWSWGGVASEHCPVLAEFYTEKDWSKKDAPRNGSGVALERSEANIKHER
With B1 the binding was “binds weakly”.
